These are yes or no findings as the source states them, for the method shown. Binding can be weak; no strength is given.
B1: M0040-H04 Fab (Fab, V domains shown)
VH: EVQLLESGGGLVQPGGSLRLSCAASGFTFSSYDMVWVRQAPGKGLEWVSSISPSGGNTQYADSVKGRFTISRDNSKNTLYLQMNSLRAEDTAVYYCAKVAAMAPWYFDYWGQGTLVTVSS
VL: DIQMTQSPDSLAVSLGERATLNCRSSQSVLYSPNNKNYLAWYQQKAGQPPKLLIYWASFRESGVPERFSGSGSGTDFTLTISSLQAEDVAVYYCQQYHTPPWTFGQGTKVEIK
B2: M0040-H09 Fab (Fab, V domains shown)
VH: EVQLLESGGGLVQPGGSLRLSCAASGFTFSLYPMQWVRQAPGKGLEWVSYIRSSGGKTHYADSVKGRFTISRDNSKNTLYLQMNSLRAEDTAVYYCARVGMGSGWYTGYFDLWGRGTLVTVSS
VL: QSELTQDPAVSVALGQAVIITCQGDSLRTYYPSWYQQKPGQAPTLLVYGKNKRPSGVPDRFSGSRSGDTASLIITGAQAEDDADYYCNSRDGSGHLFVFGPGTTVTVL
B3: M0041-A05 Fab (Fab, V domains shown)
VH: EVQLLESGGGLVQPGGSLRLSCAASGFTFSVYTMHWVRQAPGKGLEWVSVIYPSGGLTIYADSVKGRFTISRDNSKNTLYLQMNSLRAEDTAVYYCARNRGYYAPMDVWGQGTTVTVSS
VL: DIQMTQSPSSLSASVGDRVTITCRASQNINSYLNWYQQKPGKAPKLLIYAASSLQSGVPSRFSGSGSGTDFTLTISSLQPEDFVTYYCQQSYSTPKTFGQGTKVEIK
B4: M0041-B03 Fab (Fab, V domains shown)
VH: EVQLLESGGGLVQPGGSLRLSCAASGFTFSMYMMWWVRQAPGKGLEWVSVISSSGGFTSYADSVKGRFTISRDNSKNTLYLQMNSLRAEDTAVYYCARLRYSNFVGGLDVWGQGTTVTVSS
VL: DIQMTQSPATLSASVGDRVTISCRASQNISNWLAWYQQKPGKAPKLLIYTASTLHRGVPSRFSGSGSGTDFTLTITSLQPEDFATYYCQQANTFPWTFGQGTKVEIK
B5: M0041-B11 Fab (Fab, V domains shown)
VH: EVQLLESGGGLVQPGGSLRLSCAASGFTFSQYSMHWVRQAPGKGLEWVSSIVPSGGMTAYADSVKGRFTISRDNSKNTLYLQMNSLRAEDTAVYYCAKISRGNDAFDIWGQGTMVTVSS
VL: QSVLTQDPAVSVALGQTVRITCQGDSLRSYSASWYQRKPGQAPLLVIYRKTNRPSGIPDRFSGSSSGNTASLTITGAQAEDESDYYCNSRDSSGNHLFGGGTKLTVL
B6: M0041-D03 Fab (Fab, V domains shown)
VH: EVQLLESGGGLVQPGGSLRLSCAASGFTFSFYNMTWVRQAPGKGLEWVSSIYSSGGNTDYADSVKGRFTISRDNSKNTLYLQMNSLRAEDTAVYYCARDSLSHYYYGMDVWGQGTTVTVSS
VL: DIQMTQSPSSLSASVGDRITVTCRASQSITNYLNWYQQKPGKAPKLLIYAASTLQSGVPSRFSGSGSGTDFTLTISRLEPEDFAVYYCQQYGSSPTFGQGTKVEVK
B7: M0041-E11 Fab (Fab, V domains shown)
VH: EVQLLESGGGLVQPGGSLRLSCAASGFTFSQYNMQWVRQAPGKGLEWVSGIVPSGGWTPYADSVKGRFTISRDNSKNTLYLQMNSLRAEDTAVYYCARGVRYGLDYWGQGTLVTVSS
VL: DIQMTQSPSSLSAFVGDRVIITCRASQDISVYVNWYQQSSGKAPKLLIYGASSLQSGVPSRFSGSGSGTDFTLTISSLQPEDFASYFCQQSYNLPFTFGGGTNVQIK
B8: M0041-H09 Fab (Fab, V domains shown)
VH: EVQLLESGGGLVQPGGSLRLSCAASGFTFSVYEMTWVRQAPGKGLEWVSGIGSSGGMTFYADSVKGRFTISRDNSKNTLYLQMNSLRAEDTAVYYCARIRYSGSYGWHYMDVWGKGTTVTVSS
VL: DIQMTQSPGTLSLSPGERATLSCRASQSLSGDYLAWYQQKIGQAPRLLIFGASRRPTGIPDRFSGSGSGTDFALTISRLEPEDFAVYYCQQYGSLITFGQGTRLEIK
B9: M0042-B07 Fab (Fab, V domains shown)
VH: EVQLLESGGGLVQPGGSLRLSCAASGFTFSPYSMFWVRQAPGKGLEWVSVIYPSGGGTIYADSVKGRFTISRDNSKNTLYLQMNSLRAEDTAVYYCARSRESCDADTCYQYFQEWGQGTLVTVSS
VL: DIQMTQSPLSLPVTPGEPASISCRSSQSLLHSNGYNYLDWYVQKPGQSPQLLIYLGSGRASGVPDRFSGSGSGTDFTLKINRVEAEDVGVYYCMQALQTPWTFGQGTKVEIK
B10: M0043-A09 Fab (Fab, V domains shown)
VH: EVQLLESGGGLVQPGGSLRLSCAASGFTFSFYDMTWVRQAPGKGLEWVSSIWSSGGVTDYADSVKGRFTISRDNSKNTLYLQMNSLRAEDTAVYYCTRASSGYYDAFDIWGQGTMVTVSS
VL: QSVLTQPPSVSKDLRQTATLTCTGNSNNVGYQGAAWLQQHQGHPPKVLSYRNNNRPSGISERFSASRSGNTASLTITGLQPEDEADYYCSAWDSSLTAWVFGGGTKLTVL
B11: M0043-C03 Fab (Fab, V domains shown)
VH: EVQLLESGGGLVQPGGSLRLSCAASGFTFSYYAMDWVRQAPGKGLEWVSSIGSSGGDTVYADSVKGRFTISRDNSKNTLYLQMNSLRAEDTATYYCARDPRQPGVFDYWGQGTLVTVSS
VL: DIQMTQSPASLYLSPGERATLSCRASQSVSSNLAWYQQKPGQAPRLLIYGASTRATGIPARFSGSGSGTEFTLTISSLQSADFAVYYCQQYDNWPPLTFGGGTKVEIK
B12: M0043-F01 Fab (Fab, V domains shown)
VH: EVQLLESGGGLVQPGGSLRLSCAASGFTFSKYSMYWVRQAPGKGLEWVSSISSSGGYTAYADSVKGRFTISRDNSKNTLYLQMNSLRAEDTAVYYCAIPWGSGSSWGQGTLVTVSS
VL: QSALTQPASVSGSPGQSITISCTGTSSDIGAYRYVSWYQQRPGKAPKLMIFDVTKRPSGVSNRFSGFKSGNTASLTISGLQAEDEADYYCSSFTSGSTFVFGTGTKVTVL
B13: M0043-G01 Fab (Fab, V domains shown)
VH: EVQLLESGGGLVQPGGSLRLSCAASGFTFSFYSMHWVRQAPGKGLEWVSGISSSGGVTKYADSVKGRFTISRDNSKNTLYLQMNSLRAEDTAVYYCARARSTRGFDYWGQGTLVTVSS
VL: DIQMTQSPSAMSASVGDRVTITCRASQGISSWLAWYQQKPGKAPKLLIYAASSLQSGVPSRFSGSGSGTDFTLTISSLQPEDFATYYCQQANSFPLTFGGGTKVEIK
B14: M0044-B03 Fab (Fab, V domains shown)
VH: EVQLLESGGGLVQPGGSLRLSCAASGFTFSQYHMMWVRQAPGKGLEWVSSIGSSGYTKYADSVKGRFTISRDNSKNTLYLQMNSLRAEDTAVYYCAGAVAGTGAFDYWGQGTLVTVSS
VL: DIQMTQSPSSVSASVGDRVTITCRASQNIYSWLAWYQQRPGKAPKLLIYAASSLHSGVPSRFSGSGSGTDFTLTISSLQPEDFATYYCQQAKSFPVTFGGGTKVEIK
B15: M0032-B07 Fab (Fab, V domains shown)
VH: EVQLLESGGGLVQPGGSLRLSCAASGFTFSPYLMHWVRQAPGKGLEWVSSIYPSGGITQYADSVKGRFTISRDNSKNTLYLQMNSLRAEDTAVYYCARFFPSHRDYTAFDTWGRGTLVTVSS
VL: QSVLTQEPSLTVSPGGTVTLTCASNTGAVTSGSYANWFQQKPGLTPRALIYSGTNKYSWTPARFSGSLFGGKAALTLSGVLPEDEAEYYCLVYYGGVWVFGGGTKLTVL
B16: M0032-B09 Fab (Fab, V domains shown)
VH: EVQLLESGGGLVQPGGSLRLSCAASGFTFSIYKMVWVRQAPGKGLEWVSSIGSSGGHTRYADSVKGRFTISRDNSKNTLYLQMNSLRAEDTAVYYCARAPYYYYMDVWGKGTTVTVSS
VL: DIQMTQSPSSVSASVGDTVTITCRASQGISTWLAWYQHKPGKAPKLLIYAGPSLQSGVPSRFSGSGSGTEFTLTISSLHPEDFATYYCQQLNHYPMTFGQGTRLEIK

molecular target: human MMP-14 (human); experiment: phage display selection and phage ELISA screening on biotinylated MMP-14

binding, binds:
B1
B2
B3
B4
B5
B6
B7
B8
B9
B10
B11
B12
B13
B14
B15
B16
